Patent US20250145710A1
No constants are given. Whether binding was seen depends on the method and setting. Some binding calls cover weakened binding; strength is not graded here.

Chains of the proteins cited; added tags and fusions are not shown.
UniProt P56747: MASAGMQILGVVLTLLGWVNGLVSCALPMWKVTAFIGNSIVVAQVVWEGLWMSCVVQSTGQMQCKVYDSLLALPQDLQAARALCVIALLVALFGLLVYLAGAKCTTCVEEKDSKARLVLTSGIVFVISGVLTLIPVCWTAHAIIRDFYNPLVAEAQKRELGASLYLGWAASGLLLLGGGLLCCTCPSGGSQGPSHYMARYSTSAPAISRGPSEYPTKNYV

Target: human CLDN6 (human) (UniProt P56747)
Experiment: flow cytometry on a CLDN negative parental cell line transfected with CLDN6, CLDN4, CLDN3 or CLDN9 (FIG. 11A)

- binding: binds
B1: IM271-1HEP antibody (antibody, V domains shown)
VH: EVQLLESGGGLVQPGGSLRLSCAASGFTFSSYAMNWVRQAPGKGLEWVAGISSSGRYTGYADSVKGRFTISRDNSKNTLYLQMNSLRAEDTAVYYCAKSVGSGVSWSGYVATSLDAWGQGTLVTVSS
VL: SYELTQPPSVSVSPGQTARITCSAGSGLYGWYQQKPGQAPVLVIYGTNKRPSGIPERFSGSSSGTTVTLTISGVQAEDEADYYCGSADSSTNAGIFGGGTKLTVL
